Drawing on the supplement of paper PMC8256030, this text covers percent viability for 33 compounds.

Each structure is given as a SMILES string. Several values for one entry are separate records, joined by “and”; a condition that tells them apart may be missing. Equal entries are not always repeated. Structures can show the parent of a compound that is named as a salt. The list shows a part of the results. Repeats in this data set agree poorly, so a single value says little.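 HEK293T cells were given each compound shortly before transfection with a reporter in which red mCherry is followed by the SARS-CoV-2 frameshift element and then GFP in the −1 frame, so GFP appears only after frameshifting.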

In the assay the test system is HEK293T. As to the kind of experiment: percent viability (nuclei count) relative to control; higher = more viable cells. The conditions noted are these: 10 µM; 24 h.
As for `CC(=O)Nc1ccccc1`, the percent viability was found to be 158%.

As to `C[C@]12CCC(=O)C=C1CC[C@@H]1[C@@H]2C(=O)C[C@@]2(C)[C@H]1CC[C@]2(O)C(=O)CO` [cortisone], the percent viability was 81.3%.

`CCCc1nn(C)c2c(=O)[nH]c(-c3cc(S(=O)(=O)N4CCN(C)CC4)ccc3OCC)nc12` [sildenafil]: the percent viability stood at 273%.

As to `C#C[C@]1(OC(C)=O)CC[C@H]2[C@@H]3CCC4=CC(=O)CC[C@@H]4[C@H]3CC[C@@]21C`, the percent viability was found to be 153%.

Turning to `N=C(N/N=C/c1ccc(Cl)cc1)N/N=C/c1ccc(Cl)cc1` [robenidine], the percent viability worked out at 151%.

Consider `CCCCCC(C)NCc1c(C)cc(C)cc1C` (stereo not drawn) [trimexiline], for which the percent viability is 190%.

Take `Cc1ccc(C(=O)Nc2ccc(S(=O)(=O)O)c3cc(S(=O)(=O)O)cc(S(=O)(=O)O)c23)cc1NC(=O)c1cccc(NC(=O)Nc2cccc(C(=O)Nc3cc(C(=O)Nc4ccc(S(=O)(=O)O)c5cc(S(=O)(=O)O)cc(S(=O)(=O)O)c45)ccc3C)c2)c1` [suramin sodium]: the percent viability was 230% and 183%.

Regarding `CCOc1ccc(C[C@H]2NC(=O)CCSSC[C@@H](C(=O)N3CCC[C@H]3C(=O)N[C@@H](CCCN)C(=O)NCC(N)=O)NC(=O)[C@H](CC(N)=O)NC(=O)[C@H]([C@@H](C)O)NC(=O)[C@H]([C@@H](C)CC)NC2=O)cc1` [atosiban], the percent viability was 222%.

As to `CCc1nn(CCCN2CCN(c3cccc(Cl)c3)CC2)c(=O)n1CCOc1ccccc1` [Nefazodone], the percent viability turned out to be 161%.

As for `C[C@H]1[C@H](NC(=O)/C(=N\OC(C)(C)C(=O)O)c2csc(N)n2)C(=O)N1S(=O)(=O)O` [Azactam], the percent viability amounted to 210%.

`CCN(CC)C(=O)c1cccc(C)c1` [diethyltoluamide]: the percent viability was 169%.

In the case of `CCOc1ccc(S(=O)(=O)O)c2cccnc12` [actinoquinol], the percent viability came out at 116%.

For the compound `CC[C@H]1OC(=O)[C@H](C)[C@@H](O[C@H]2C[C@@](C)(OC)[C@@H](O)[C@H](C)O2)[C@H](C)[C@@H](O[C@@H]2O[C@H](C)C[C@H](N(C)C)[C@H]2O)[C@](C)(O)C[C@@H](C)/C(=N\OCOCCOC)[C@H](C)[C@@H](O)[C@]1(C)O` [Roxithromycin], the percent viability came out at 210%.

In the case of `Cc1cc(Cc2cnc(N)nc2N)c2cccnc2c1N(C)C` [baquiloprim], the percent viability stood at 173%.

For the compound `CN(C)[C@@H]1C(=O)C(C(=O)NCN2CCCC2)=C(O)[C@@]2(O)C(=O)C3=C(O)c4c(O)cccc4[C@@](C)(O)[C@H]3C[C@@H]12`, the percent viability worked out at 169%.

`CC(C)NC(=N)NC(=N)Nc1ccc(Cl)cc1`: the percent viability came out at 349%.

Consider `COC(=O)Nc1nc2cc([S+]([O-])c3ccccc3)ccc2[nH]1` (stereo not drawn), for which the percent viability stood at 296%.

In the case of `CC(C)(C)c1ccc(C(O)CCCN2CCC(C(O)(c3ccccc3)c3ccccc3)CC2)cc1` (stereo not drawn) [terfenadine], the percent viability was 233% and 303%.

As to `COc1c(N2C[C@@H]3CCCN[C@@H]3C2)c(F)cc2c(=O)c(C(=O)O)cn(C3CC3)c12`, the percent viability is 292%.

`CCOP(=O)(Cc1ccc(C(=O)Nc2ccc(Br)cc2C#N)cc1)OCC` [ibrolipim]: the percent viability turned out to be 130%.

For `CN(C)CCCN1c2ccccc2Sc2cccnc21` [prothipendyl], the percent viability is 528%.

Consider `COc1ccc(/C=C/C(=O)Nc2ccccc2C(=O)O)cc1OC` [tranilast], for which the percent viability was found to be 261%.

Turning to `Cc1cc(NC(=O)/C(C#N)=C(\O)C2CC2)ccc1C(F)(F)F` [laflunimus], the percent viability turned out to be 235%.

With `CC1CC(OC(=O)c2ccccc2O)CC(C)(C)C1` (stereo not drawn) [homosalate], the percent viability came out at 344%.

Turning to `NC(C(=O)O)C(O)c1ccc(O)c(O)c1` (stereo not drawn), the percent viability is 47.6%.

In the case of `C[C@@H]1C[C@H]2[C@@H]3C[C@H](F)C4=CC(=O)C=C[C@]4(C)[C@H]3[C@@H](O)C[C@]2(C)[C@H]1C(=O)CO` [fluocortolone], the percent viability stood at 225%.

Take `N[C@@H](Cc1cc(I)c(Oc2cc(I)c(O)c(I)c2)c(I)c1)C(=O)O`: the percent viability is 98.6%.

For `O=C(O)c1ccc[n+]([O-])c1` [oxiniacic acid], the percent viability was 74.2%.

As to `COC(c1ccccc1)(c1ccccc1)[C@H](Oc1nc(C)cc(C)n1)C(=O)O` [ambrisentan], the percent viability was found to be 215%.

With `CCN1CCC(=C2c3ccccc3CCc3ccccc32)C1C` (stereo not drawn) [piroheptine], the percent viability was 187%.

In the case of `Fc1ccc(C(c2ccc(F)cc2)N2CCN(C/C=C/c3ccccc3)CC2)cc1` [flunarizine], the percent viability is 116% and 269%.

As for `CC[C@@]1(O)C(=O)OCc2c1cc1n(c2=O)Cc2cc3c(CN(C)C)c(O)ccc3nc2-1` [Topotecan·HCl], the percent viability came to 146%.

As for `O=C1OCCN1/N=C/c1ccc([N+](=O)[O-])o1` [furazolidone], the percent viability was found to be 116%.
